Data source: PubChem BioAssay AID1224828 (NIAID, 2016)

Aim: 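Regulators linking TLR4 signalling to p65 nuclear translocation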 (primary screen)
System: mouse RAW264.7 G9 macrophage reporter cells (GFP-p65, Tnf promoter-mCherry)
Reagents: siRNA pool against mouse genes, 100 nM
Duration: 2 days siRNA transfection, then 40 min LPS before fixation
Challenge: LPS (Salmonella minnesota R595) at 10 ng/ml
Measured: 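Imaged p65 nuclear translocation ratio, normalised to the plate median, converted to robust z-scores and averaged across two replicates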
Reading the numbers: p65 translocation robust z-score: higher = more nuclear NF-kappaB p65 after LPS than the plate median; nuclear/cytoplasmic p65 ratio: higher = more nuclear NF-kappaB p65
Rule for the call: 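Called active when z exceeds 3.3 or falls under -1.56 (median of Tlr4 controls), giving activity score of at least 50; no calls for control wells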
Calls: active = hit (p65 shift raised or lowered); inactive = no clear change
This is an unselected part of about 17,000 reagents tested. Of all reagents, 762 (4.5%) were called active. 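Active calls include both raised and lowered p65 entry, mostly lowered; wells with fewer than 50 cells lack a z-score.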 Raw values are not corrected between plates. A reagent listed more than once was tested more than once; the source does not tell the runs apart.

| gene knocked down | p65 translocation robust z-score | nuclear/cytoplasmic p65 ratio, rep 1 | nuclear/cytoplasmic p65 ratio, rep 2 | low cell count flag | call |
| --- | --- | --- | --- | --- | --- |
| Ticam1 | -1.27 | 1.39 | 1.36 | enough cells to score | inactive |
| Csn3 | 0.38 | 1.58 | 1.9 | enough cells to score | inactive |
| Kcna2 | -0.61 | 1.38 | 1.31 | enough cells to score | inactive |
| Cfap36 | -0.87 | 1.16 | 0.865 | enough cells to score | inactive |
| Akap11 | -0.39 | 1.68 | 1.29 | enough cells to score | inactive |
| Clec4a2 | -0.26 | 1.58 | 1.71 | enough cells to score | inactive |
| Gmcl1 | -0.92 | 1.38 | 1.41 | enough cells to score | inactive |
| Erich5 | -0.08 | 1.59 | 1.81 | enough cells to score | inactive |
| Cited1 | -0.74 | 1.34 | 1.29 | enough cells to score | inactive |
| Alyreffm1 | -0.3 | 1.19 | 1.31 | enough cells to score | inactive |
| Mob1a | -0.18 | 1.77 | 1.55 | enough cells to score | inactive |
| Hoxd9 | -0.04 | 1.36 | 1.44 | enough cells to score | inactive |
| Gfra4 | -0.73 | 1.4 | 1.22 | enough cells to score | inactive |

Copied from the list.
Under “nuclear/cytoplasmic p65 ratio, rep 2”, Alyreffm1 has 1.31
Mob1a, call = inactive
Entry for Clec4a2 under “call”: inactive
For “low cell count flag”, Gfra4 shows enough cells to score
Kcna2, p65 translocation robust z-score = -0.61
Entry for Akap11 under “nuclear/cytoplasmic p65 ratio, rep 1”: 1.68

More results follow:
| gene knocked down | p65 translocation robust z-score | nuclear/cytoplasmic p65 ratio, rep 1 | nuclear/cytoplasmic p65 ratio, rep 2 | low cell count flag | call |
| --- | --- | --- | --- | --- | --- |
| Rbm48 | – | 1.21 | 1.4 | fewer than 50 cells per well; well left out of scoring | inactive |
| Rngtt | -0.51 | 1.35 | 1.16 | enough cells to score | inactive |
| Or9k2b | 1.02 | 1.63 | 1.35 | enough cells to score | inactive |
| Uchl3 | -0.78 | 1.37 | 1.43 | enough cells to score | inactive |
| Ampd3 | 0.4 | 1.76 | 1.6 | enough cells to score | inactive |
| Osbpl9 | -0.51 | 1.34 | 1.21 | enough cells to score | inactive |
| Strn4 | -0.83 | 1.44 | 1.14 | enough cells to score | inactive |
| Ucma | -0.48 | 1.38 | 1.47 | enough cells to score | inactive |
| Myh10 | -0.11 | 1.8 | 1.54 | enough cells to score | inactive |
| Ppp4r4 | -0.57 | 1.56 | 1.5 | enough cells to score | inactive |
| Cep97 | 0.75 | 1.44 | 1.62 | enough cells to score | inactive |
| Cidec | 0.82 | 1.66 | 1.63 | enough cells to score | inactive |
| Rad54l2 | -0.75 | 1.34 | 1.15 | enough cells to score | inactive |
| Pcdha1 | 0.65 | 1.56 | 1.29 | enough cells to score | inactive |
| Dbpht1 (retired record) | -1.4 | 1.34 | 1.6 | enough cells to score | inactive |
| Vmn1r44 | 0.83 | 1.48 | 1.34 | enough cells to score | inactive |
| Sfrp1 | 0.06 | 1.55 | 1.58 | enough cells to score | inactive |
| F13b | -0.86 | 1.36 | 1.25 | enough cells to score | inactive |
| Psmd6 | – | 2.17 | 1.17 | fewer than 50 cells per well; well left out of scoring | inactive |
| Scyl3 | 0.96 | 1.69 | 1.51 | enough cells to score | inactive |
| Scyl3 | – | 1.14 | 1.24 | fewer than 50 cells per well; well left out of scoring | inactive |
| Nhlrc2 | -1.95 | 1.4 | 1.26 | enough cells to score | active |
| Ins1 | -1.33 | 1.4 | 1.21 | enough cells to score | inactive |
| Tle2 | 1.68 | 1.68 | 1.84 | enough cells to score | inactive |
| Mesd | 1.18 | 1.23 | 1.49 | enough cells to score | inactive |
| Nrn1 | -0.09 | 1.8 | 1.44 | enough cells to score | inactive |
| Sostdc1 | – | 1.57 | 1.26 | fewer than 50 cells per well; well left out of scoring | inactive |
